{
  "source": "patent US9180082B2",
  "about": "“Biotin-conjugated hexapeptide-2 derivative and use thereof” (INCOSPHARM CORPORATION, priority 2012, dated 2015)",
  "test_system": "type 1 collagen biosynthesis in fibroblasts",
  "assay": "Type 1 collagen biosynthesis-promoting ability, ELISA of fibroblast culture supernatants",
  "type": "cell-based",
  "conditions": "supernatants of human dermal fibroblasts; dilutions of 200 uM, 20 uM and 2 uM, each 100 ul added to 100 ul medium; incubation 48 hours; FIG. 2",
  "note": "Part of at least one peptide drawing is inferred or uncertain, most often the ends. Where a SMILES comes first, the peptide text is derived from it. [ ]: non-standard residue; d: D form.",
  "data": [
    {"smiles": "C[C@H](NC(=O)[C@@H](Cc1c[nH]c2ccccc12)NC(=O)[C@@H](N)Cc1c[nH]cn1)C(=O)N[C@@H](Cc1c[nH]c2ccccc12)C(=O)N[C@H](Cc1ccccc1)C(=O)N[C@@H](CCCCN)C(N)=O", "note": "[hexapeptide-2, His-D-Trp-Ala-Trp-D-Phe-Lys-NH2] (H-H[dW]AW[dF]K-NH2)", "values": [
      {"measurement": "type 1 collagen biosynthesis (ELISA, relative to control group with no sample added = 100%)", "value": "no increase"}
    ]}
  ]
}
